Article PMC4164784, “4E-BPs require non-canonical 4E-binding motifs and a lateral surface of eIF4E to repress translation” (Nature Communications, 2014)
Substitutions are numbered along the chain they refer to. No constants are given. Whether binding was seen depends on the method and setting. Binding seen in cells or lysates may run through a third protein. Some entries that bind do so weakly or less than the wild type. Where a sequence is shown, tags or fusion partners need not be part of it.

By UniProt entry, the sequences of proteins in these tests, tags left out.
UniProt O61380: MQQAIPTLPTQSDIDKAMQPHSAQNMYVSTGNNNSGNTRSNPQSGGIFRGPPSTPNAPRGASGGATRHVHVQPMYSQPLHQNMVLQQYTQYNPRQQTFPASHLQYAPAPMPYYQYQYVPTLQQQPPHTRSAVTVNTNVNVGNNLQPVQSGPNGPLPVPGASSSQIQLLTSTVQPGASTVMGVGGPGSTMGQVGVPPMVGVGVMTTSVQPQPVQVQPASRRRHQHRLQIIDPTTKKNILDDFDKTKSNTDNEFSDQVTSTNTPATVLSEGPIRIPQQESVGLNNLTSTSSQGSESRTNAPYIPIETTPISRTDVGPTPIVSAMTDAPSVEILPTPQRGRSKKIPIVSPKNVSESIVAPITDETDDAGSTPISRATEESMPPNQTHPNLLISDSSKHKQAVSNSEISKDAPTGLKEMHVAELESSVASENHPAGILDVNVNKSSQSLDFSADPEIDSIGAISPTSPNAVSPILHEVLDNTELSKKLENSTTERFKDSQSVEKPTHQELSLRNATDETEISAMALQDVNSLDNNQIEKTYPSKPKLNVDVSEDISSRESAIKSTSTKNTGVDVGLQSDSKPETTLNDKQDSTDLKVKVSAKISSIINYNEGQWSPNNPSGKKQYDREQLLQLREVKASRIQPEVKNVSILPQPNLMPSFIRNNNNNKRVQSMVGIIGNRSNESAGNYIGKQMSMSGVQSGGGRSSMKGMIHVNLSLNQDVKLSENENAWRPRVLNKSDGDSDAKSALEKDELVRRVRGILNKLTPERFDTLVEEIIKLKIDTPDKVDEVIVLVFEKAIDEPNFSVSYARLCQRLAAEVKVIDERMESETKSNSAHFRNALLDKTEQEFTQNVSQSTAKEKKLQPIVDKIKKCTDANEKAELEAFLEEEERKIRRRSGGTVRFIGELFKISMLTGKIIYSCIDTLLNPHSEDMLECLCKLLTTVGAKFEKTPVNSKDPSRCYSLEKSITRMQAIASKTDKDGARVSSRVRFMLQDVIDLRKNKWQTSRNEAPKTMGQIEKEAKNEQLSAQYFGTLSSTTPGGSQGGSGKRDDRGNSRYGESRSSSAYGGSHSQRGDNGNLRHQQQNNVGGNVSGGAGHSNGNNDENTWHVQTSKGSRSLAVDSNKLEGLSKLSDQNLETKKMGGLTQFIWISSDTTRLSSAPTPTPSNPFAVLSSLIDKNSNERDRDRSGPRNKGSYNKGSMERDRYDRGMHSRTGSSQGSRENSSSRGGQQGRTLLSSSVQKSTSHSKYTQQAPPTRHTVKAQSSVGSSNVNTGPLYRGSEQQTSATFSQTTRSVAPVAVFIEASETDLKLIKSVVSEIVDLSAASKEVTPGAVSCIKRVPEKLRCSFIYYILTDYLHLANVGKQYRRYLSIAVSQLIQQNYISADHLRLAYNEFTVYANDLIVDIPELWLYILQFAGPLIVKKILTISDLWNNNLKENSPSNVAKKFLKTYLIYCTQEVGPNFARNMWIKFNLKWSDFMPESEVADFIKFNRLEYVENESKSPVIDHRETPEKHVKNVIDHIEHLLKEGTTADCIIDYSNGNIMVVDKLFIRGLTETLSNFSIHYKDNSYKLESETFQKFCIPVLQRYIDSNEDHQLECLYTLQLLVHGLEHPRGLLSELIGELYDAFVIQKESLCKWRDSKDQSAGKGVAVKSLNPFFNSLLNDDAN

Legend:
[1] = target: T1, HA-eIF4E (WT) (Drosophila melanogaster) (UniProt P48598); experiment: co-IP; S2 cell lysates; HA-eIF4E (WT or mutated) with GFP-tagged full-length 4E-BPs and endogenous eIF4G; western blot
T1 sequence: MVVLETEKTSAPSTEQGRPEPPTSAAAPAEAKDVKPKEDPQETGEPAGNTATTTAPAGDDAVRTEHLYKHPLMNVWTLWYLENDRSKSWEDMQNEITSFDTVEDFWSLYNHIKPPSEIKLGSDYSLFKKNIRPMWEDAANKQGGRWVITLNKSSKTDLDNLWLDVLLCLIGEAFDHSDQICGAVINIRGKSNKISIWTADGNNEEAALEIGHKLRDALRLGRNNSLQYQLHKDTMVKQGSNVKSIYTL

[2] = target: T2, HA-eIF4E II-AA (Drosophila melanogaster) (UniProt P48598); experiment: as above
T2 sequence: T1 sequence with I96A, I112A

binding [1]: binds | binding [2]: binds
Substance: endogenous eIF4G (S2 cells) (from UniProt O61380 1-1666)
